Test results published in ChEMBL document CHEMBL2321763, “The role of the acidity of N-heteroaryl sulfonamides as inhibitors of bcl-2 family protein-protein interactions” (ACS Med Chem Lett, 2013).

Test: Solubility of compound in fasted state simulated intestinal fluid
Details: simulated gi fluid

For `O=[N+]([O-])c1cc(S(=O)(=O)Nc2cccc3cc(N4CCN(Cc5ccccc5-c5ccc(Cl)cc5)CC4)ccc23)ccc1N[C@H](CCN1CCOCC1)CSc1ccccc1`, the solubility was less than 5 µM.
